These are yes or no findings as the source states them, for the method shown. Binding seen in cells or lysates may run through a third protein. Some entries that bind do so weakly or less than the wild type. Where a sequence is shown, tags or fusion partners need not be part of it.

Chains of the proteins cited; added tags and fusions are not shown.
UniProt P38398: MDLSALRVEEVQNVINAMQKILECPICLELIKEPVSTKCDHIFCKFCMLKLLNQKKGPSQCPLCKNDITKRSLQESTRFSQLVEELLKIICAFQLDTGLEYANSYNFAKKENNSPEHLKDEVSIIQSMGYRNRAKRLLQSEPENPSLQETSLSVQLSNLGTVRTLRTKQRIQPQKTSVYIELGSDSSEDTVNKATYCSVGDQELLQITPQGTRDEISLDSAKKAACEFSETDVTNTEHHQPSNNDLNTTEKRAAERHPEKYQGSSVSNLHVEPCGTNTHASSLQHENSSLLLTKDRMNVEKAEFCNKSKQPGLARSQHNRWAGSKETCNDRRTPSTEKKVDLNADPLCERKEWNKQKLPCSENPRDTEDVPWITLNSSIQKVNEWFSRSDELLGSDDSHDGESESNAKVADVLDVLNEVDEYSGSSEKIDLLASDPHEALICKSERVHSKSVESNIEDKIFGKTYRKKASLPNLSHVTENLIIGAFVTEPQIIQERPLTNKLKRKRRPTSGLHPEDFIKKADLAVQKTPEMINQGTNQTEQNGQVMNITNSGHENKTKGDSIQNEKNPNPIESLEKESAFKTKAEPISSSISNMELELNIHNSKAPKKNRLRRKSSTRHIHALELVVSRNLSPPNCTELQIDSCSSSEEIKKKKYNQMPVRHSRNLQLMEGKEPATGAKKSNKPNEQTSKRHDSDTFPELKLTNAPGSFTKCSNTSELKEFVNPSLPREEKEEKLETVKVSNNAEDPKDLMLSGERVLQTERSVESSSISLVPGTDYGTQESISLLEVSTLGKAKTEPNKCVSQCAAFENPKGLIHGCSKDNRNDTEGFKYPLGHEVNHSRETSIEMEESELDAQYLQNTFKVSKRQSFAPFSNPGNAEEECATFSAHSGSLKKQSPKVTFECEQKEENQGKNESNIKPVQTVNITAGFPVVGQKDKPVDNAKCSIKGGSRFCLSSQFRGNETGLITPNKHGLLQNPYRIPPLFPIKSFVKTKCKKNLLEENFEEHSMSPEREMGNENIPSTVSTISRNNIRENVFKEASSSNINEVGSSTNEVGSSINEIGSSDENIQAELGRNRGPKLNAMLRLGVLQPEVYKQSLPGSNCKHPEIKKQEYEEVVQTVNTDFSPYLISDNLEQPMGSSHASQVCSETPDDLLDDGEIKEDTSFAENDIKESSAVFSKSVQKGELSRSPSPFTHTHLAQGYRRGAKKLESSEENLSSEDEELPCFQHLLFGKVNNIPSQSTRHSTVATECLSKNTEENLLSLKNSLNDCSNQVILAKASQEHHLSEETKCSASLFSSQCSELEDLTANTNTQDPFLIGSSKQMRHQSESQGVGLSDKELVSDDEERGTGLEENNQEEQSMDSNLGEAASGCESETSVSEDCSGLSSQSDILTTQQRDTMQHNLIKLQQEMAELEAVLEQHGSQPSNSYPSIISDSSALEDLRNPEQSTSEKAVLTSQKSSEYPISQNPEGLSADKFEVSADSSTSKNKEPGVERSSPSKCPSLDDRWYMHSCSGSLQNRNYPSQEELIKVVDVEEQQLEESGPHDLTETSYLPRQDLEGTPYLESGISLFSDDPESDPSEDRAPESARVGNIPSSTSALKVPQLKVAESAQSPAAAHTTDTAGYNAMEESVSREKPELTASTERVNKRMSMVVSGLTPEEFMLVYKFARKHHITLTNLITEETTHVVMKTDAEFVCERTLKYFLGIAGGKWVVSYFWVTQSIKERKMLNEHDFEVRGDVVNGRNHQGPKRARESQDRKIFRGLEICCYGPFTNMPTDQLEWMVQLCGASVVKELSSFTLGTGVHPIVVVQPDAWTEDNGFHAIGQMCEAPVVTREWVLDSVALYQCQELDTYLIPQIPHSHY

For the experiment, the target named is GFP-tagged BRCA1 (UniProt P38398). The experiment is described as follows: co-IP; HEK-293T cells co-transfected, lysed 24 h after transfection in modified RIPA (150 mM NaCl, 50 mM Tris pH 7.5, 1% NP-40); GFP-BRCA1 precipitated for GFP (GFP-Trap agarose beads), blot anti-HA; with or without K-Ras12V or mutant Her2 (V659E).

B1: HA-tagged NORE1A (full-length) (protein, UniProt Q8WWW0-1 1-418)
chain: MAMASPAIGQRPYPLLLDPEPPRYLQSLSGPELPPPPPDRSSRLCVPAPLSTAPGAREGRSARRAARGNLEPPPRASRPARPLRPGLQQRLRRRPGAPRPRDVRSIFEQPQDPRVPAERGEGHCFAELVLPGGPGWCDLCGREVLRQALRCTNCKFTCHPECRSLIQLDCSQQEGLSRDRPSPESTLTVTFSQNVCKPVEETQRPPTLQEIKQKIDSYNTREKNCLGMKLSEDGTYTGFIKVHLKLRRPVTVPAGIRPQSIYDAIKEVNLAATTDKRTSFYLPLDAIKQLHISSTTTVSEVIQGLLKKFMVVDNPQKFALFKRIHKDGQVLFQKLSIADRPLYLRLLAGPDTEVLSFVLKENETGEVEWDAFSIPELQNFLTILEKEEQDKIQQVQKKYDKFRQKLEEALRESQGKPG
As to B1, the binding entry is “binds”.

B2: NORE1A-INT domain (AA 170-272), HA-tagged (domain or fragment, UniProt Q8WWW0-1 170-272)
chain: CSQQEGLSRDRPSPESTLTVTFSQNVCKPVEETQRPPTLQEIKQKIDSYNTREKNCLGMKLSEDGTYTGFIKVHLKLRRPVTVPAGIRPQSIYDAIKEVNLAA
Consider B2, for which the binding entry is recorded as “binds”.

The record behind these values is PMC10452424.
